Data as given in paper PMC10565641.
No constants are given. Whether binding was seen depends on the method and setting. Binding seen in cells or lysates may run through a third protein. Some results given as binding are weak or reduced against the parent protein; the word gives no strength. Tags and fused reporters may be left off the sequences shown.

Target: FLAG-V5-tagged FBXW7α, wild type (human), Q969H0
Test: co-IP; HEK293T cells co-transfected with tagged constructs; benzonase lysis buffer, KCl to 450 mM then diluted to 150 mM; anti-FLAG M2 magnetic beads 2 h; five washes with 100 mM KCl at 4°C; immunoblot for tagged or indicated proteins
Settings: remark: other sources report otherwise

binding: binds
B1: Myc-tagged LEF1, Q9UJU2 1-399 (protein)
chain: MPQLSGGGGGGGGDPELCATDEMIPFKDEGDPQKEKIFAEISHPEEEGDLADIKSSLVNESEIIPASNGHEVARQAQTSQEPYHDKAREHPDDGKHPDGGLYNKGPSYSSYSGYIMMPNMNNDPYMSNGSLSPPIPRTSNKVPVVQPSHAVHPLTPLITYSDEHFSPGSHPSHIPSDVNSKQGMSRHPPAPDIPTFYPLSPGGVGQITPPLGWQGQPVYPITGGFRQPYPSSLSVDTSMSRFSHHMIPGPPGPHTTGIPHPAIVTPQVKQEHPHTDSDLMHVKPQHEQRKEQEPKRPHIKKPLNAFMLYMKEMRANVVAECTLKESAAINQILGRRWHALSREEQAKYYELARKERQLHMQLYPGWSARDNYGKKKKRKREKLQESASGTGPRMTAAYI
